From patent US20040142317A1, “Use of amino acid transporter atbo,+ as a delivery system for drugs and prodrugs” (priority 2003, published 2004)
Read-outs that look alike come from different tables or passages of the source. At least one structure is not confirmed: it was looked up by name or label, or the drawing left a doubt. Some results were stated once for a whole list of compounds, not compound by compound.

Experiments:
[1] = target: T1, mouse ATB^0,+ (Mus musculus, UniProt Q9JMA9); details: compound 1 mM, NaCl medium pH 7.5, voltage clamp
T1 sequence (Q9JMA9 1-638): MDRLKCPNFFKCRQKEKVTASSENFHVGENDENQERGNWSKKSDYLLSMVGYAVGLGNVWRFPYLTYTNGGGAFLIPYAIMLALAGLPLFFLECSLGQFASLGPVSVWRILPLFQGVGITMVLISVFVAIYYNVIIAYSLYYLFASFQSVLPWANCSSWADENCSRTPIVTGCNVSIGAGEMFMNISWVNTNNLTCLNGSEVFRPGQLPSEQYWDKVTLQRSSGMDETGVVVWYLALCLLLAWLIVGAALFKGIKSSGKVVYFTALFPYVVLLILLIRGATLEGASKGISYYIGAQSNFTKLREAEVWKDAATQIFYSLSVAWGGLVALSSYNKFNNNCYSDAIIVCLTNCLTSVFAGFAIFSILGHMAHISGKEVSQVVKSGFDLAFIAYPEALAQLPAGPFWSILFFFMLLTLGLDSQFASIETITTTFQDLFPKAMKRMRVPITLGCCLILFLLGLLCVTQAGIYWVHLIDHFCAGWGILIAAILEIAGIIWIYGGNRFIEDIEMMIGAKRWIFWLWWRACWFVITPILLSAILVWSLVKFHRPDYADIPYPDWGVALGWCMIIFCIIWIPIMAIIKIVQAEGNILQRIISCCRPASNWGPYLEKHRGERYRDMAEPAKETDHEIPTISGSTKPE

[2] = target: T1, mouse ATB^0,+; test: Inhibition of ATB0,+-specific [3H]-L-NNA transport by amino acids in HRPE cells; type: cell-based

SMILES: NC(=O)NCCC[C@H](N)C(=O)O [Citrulline]
- Current in X. laevis oocytes ([1]; listed as citrulline): 130-550 nA

SMILES: N[C@@H](CCC(=O)O)C(=O)O [Glutamate, L-Glutamate]
- inhibition of ATB^0,+-specific L-NNA transport [2]: did not inhibit

SMILES: NC(=NCCC[C@H](N)C(=O)OCc1ccccc1)N[N+](=O)[O-] [L-NABE]
- Current in X. laevis oocytes [1]: 10-15 nA

SMILES: COC(=O)[C@@H](N)CCCNC(=N)N[N+](=O)[O-] [L-NAME]
- Current in X. laevis oocytes [1]: 10-15 nA

SMILES: NCCCC[C@H](N)C(=O)O [Lysine]
- Current in X. laevis oocytes ([1]; listed as lysine): 130-550 nA
